# Out of some 330,000 compounds screened, about 7,700 (2.3%) were called active. This list was built around the results that the source calls inconclusive (neither active nor inactive); the mix of calls is not that of the screen. Calls come from the whole dose curve; as a rule, active = well fitted inhibition curve with a large enough effect; inconclusive = small, poorly fitted or top-dose-only effect, or effect the other way; inactive = flat fitted curve, though single readings scatter. Potencies of inconclusive entries are doubtful fits and often do not repeat.
# Test: qHTS screen for small molecules that inhibit ELG1-dependent DNA repair in human embryonic kidney (HEK293T) cells expressing luciferase-tagged ELG1; note: nearly all actives have a fitted effect of over 55% in size
# Settings: HEK293T ELG1-luciferase reporter, luminescence, 16 h, DNA damage induced by 5-fluorouridine; series mostly up to 46.1 µM
# In short: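 Step one: seed 2,000 cells per well. Step two: pin-transfer compound or DMSO alongside 5-fluorouridine. Step three: incubate 16 hr, 37 °C, 5% CO2. Step four: add ONE-Glo, wait 30 min, read luminescence.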
# Potency is the fitted concentration of half-maximal effect.
row,SMILES,Potency
1,CC(=O)N/N=c1\sc2ccccc2n1C,inactive
2,O=C(Nc1cccc(-n2cnnn2)c1)C1CCCN(Cc2cccc(C(F)(F)F)c2)C1 (stereo not given),"inconclusive: 5.17 µM [inhibitor, partial curve, poor fit]"
3,Cc1c(C(=O)N2CCOCC2)oc2ccc(Br)cc12,"inconclusive: 16.4 µM [activator, partial curve, poor fit]"
4,COc1ccccc1-n1cnc2cc(NCc3ccco3)ccc21,"inconclusive: 20 µM [activator, single point]"
5,O=C(COC(=O)CNS(=O)(=O)c1ccc(Br)cc1Cl)NCCc1ccccc1,inactive
6,Cc1c(C(=O)Nc2ccccn2)sc2nc3n(c(=O)c12)CCC3,"inconclusive: 3.66 µM [activator, full curve]"
7,COc1cc(/C=N/NC(N)=O)cc(Br)c1OCc1ccccc1C,inactive
8,CC(C)[C@@H](C(=O)NC1CC1)N1C(=O)N2CCc3c([nH]c4ccccc34)[C@@]2(C)C1=O,"inconclusive: 0.0018 µM [activator, full curve, poor fit]"
9,CC(=O)c1ccc(N2CCN(C(=O)Nc3ccc(C)cc3)CC2)cc1,"inconclusive: 23.1 µM [inhibitor, single point]"
10,C=CCn1c(C)cc(C(=O)COc2ccc(N(C)S(=O)(=O)c3ccc(NC(C)=O)cc3)cc2)c1C,"inconclusive: 9.2 µM [inhibitor, single point]"
11,CS(=O)(=O)c1ccc(Cl)c(NC(=O)COC(=O)C23CC4CC(CC(C4)C2)C3)c1,"inconclusive: 29.1 µM [inhibitor, single point]"
12,c1ccc2[nH]c(SCc3cscn3)nc2c1,"inconclusive: 12.6 µM [activator, partial curve]"
13,COc1cc(C(=O)Nc2ccc3nc4n(c(=O)c3c2)CCCCC4)cc(OC)c1OC,"inconclusive: 23.1 µM [inhibitor, partial curve]"
14,O=C(Nc1cccc([N+](=O)[O-])c1)Nc1cccc([N+](=O)[O-])c1,"inconclusive: 16.4 µM [inhibitor, partial curve]"
15,Cc1nc2c(ccc3c2ccc2nc(C)sc23)s1,"inconclusive: 2.91 µM [activator, full curve]"
16,Oc1ccc2ccccc2c1/C=N/c1nccs1,inactive
17,CCOc1cccc2c1OC1(CCCCC1)N1N=C(c3cccnc3)CC21 (stereo not given),"inconclusive: 29.1 µM [activator, single point]"
18,Cc1nnc(NC(=O)C2CCN(c3nnnn3-c3ccccc3)CC2)s1,inactive
19,O=c1c2c3c(sc2nc2n1CCCCC2)CCCCC3,"inconclusive: 18.4 µM [activator, partial curve]"
20,C=CCN(CC=C)S(=O)(=O)c1ccc(NC(=S)NC(=O)Cc2ccc(OC)cc2)cc1,"inconclusive: 10.3 µM [inhibitor, partial curve, poor fit]"
21,Cc1cc(C)c2c(c1)NC(c1cc3c(cc1Br)OCO3)C1CC=CC21 (stereo not given),inactive
22,COc1ccc(OC)c(Nc2c3ccccc3nc3ccccc23)c1,active: 11.6 µM
23,COc1cc(/C=N/N=C(N)N)ccc1OCc1ccc(Cl)cc1,"inconclusive: 8.2 µM [activator, partial curve]"

row,SMILES,Potency
1,C=CCn1c(SCc2cc(=O)n3ccsc3n2)nnc1C1CCCCC1,"inconclusive: 32.6 µM [activator, partial curve, poor fit]"
2,COc1ccc(OC)c(-n2cc3c(=O)n(C)c(=O)n(C)c3c2)c1,"inconclusive: 23.1 µM [inhibitor, partial curve, poor fit]"
3,COc1ccc(NC(=O)c2cccc3c2C(=O)N(C2CCCCC2)C3)cc1,"inconclusive: 20.6 µM [inhibitor, single point]"
4,COc1cc(C(=O)Nc2nc(OC)c(-c3ccccc3)c(OC)n2)cc(OC)c1OC,active: 9.2 µM
5,Cc1ccc2c(c1)c(N=O)c(O)n2Cc1ccc(Cl)cc1,"inconclusive: 23.1 µM [inhibitor, single point]"
6,O=C(Nc1ccc(F)cc1F)c1ccc(-n2cccn2)nc1,"inconclusive: 32.6 µM [inhibitor, partial curve, poor fit]"
7,C=CCN(c1ccccc1)S(=O)(=O)c1cccc(C(=O)Nc2ccc(N3CCOCC3)cc2)c1,active: 14.6 µM
8,CC(=O)N1c2ccc(S(=O)(=O)NCC3CCC(C(=O)Nc4cccc(C)n4)CC3)cc2CC1C (stereo not given),"inconclusive: 29.1 µM [inhibitor, single point]"
9,CCOC(=O)/C(=N\Nc1ccccc1Cl)N1CC(C)OC(C)C1 (stereo not given),"inconclusive: 16.4 µM [inhibitor, single point]"
10,c1ccc(Oc2nc(-c3cccnc3)nc3ccccc23)cc1,"inconclusive: 23.1 µM [inhibitor, partial curve]"
11,Cc1ccc2[nH]c(=O)c(CN(CC3CCCO3)C(=S)Nc3ccccc3)cc2c1 (stereo not given),"inconclusive: 25.9 µM [inhibitor, single point]"
12,CC1CCC(C(C)C)C(OC(=O)COC(=O)c2ccc(N)cc2)C1 (stereo not given),inactive
13,Nc1ncnc(N2CCOCC2)c1N,inactive
14,Cc1ccc2c(c1)-c1c(ssc1=S)C(C)(C)N2C(=O)CSC1=NCCS1,inactive
15,CC(CC(=O)Nc1cccc(S(=O)(=O)N2CCCCC2)c1)c1ccccc1 (stereo not given),"inconclusive: 29.1 µM [inhibitor, single point]"
16,O=C(C(Sc1ccccc1)c1ccccc1)N1CCOCC1 (stereo not given),inactive
17,COc1ccc(CC(=O)N/N=C(/C)CC(=O)N(C)c2ccccc2)cc1,inactive
18,CCC(C)c1ccc(OCC(=O)Nc2ccc3c(c2)C(=O)NC3=O)cc1 (stereo not given),inactive
19,COc1ccc(C(=O)N2c3ccc(F)cc3CCC2C)cc1OC (stereo not given),inactive
20,CC(CSc1nc2ccccc2s1)Cn1c(N2CCCC2)nc2c1c(=O)[nH]c(=O)n2C (stereo not given),active: 14.6 µM
21,CCCn1c(NCc2cc(OC)ccc2OC)nc2ccccc21,"inconclusive: 25.9 µM [activator, single point]"
22,O=C(COc1ccc2oc3c(c2c1)CCCC3)Nc1ccccn1,"inconclusive: 10.3 µM [activator, partial curve]"

# Random excerpt: 2 entries already listed.
row,SMILES,Potency
6,O=C(Nc1ccc(F)cc1F)c1ccc(-n2cccn2)nc1,"inconclusive: 32.6 µM [inhibitor, partial curve, poor fit]"
3,COc1ccc(NC(=O)c2cccc3c2C(=O)N(C2CCCCC2)C3)cc1,"inconclusive: 20.6 µM [inhibitor, single point]"

# — PubChem BioAssay AID504467 (National Center for Advancing Translational Sciences (NCATS), 2011)
